Experimental data as given in PMC10693528, “A high-throughput metabolomics in vitro platform for the characterization of hepatotoxicity” (Cell Biology and Toxicology, 2023).
Some compounds share one wording; it may come from a single statement.

tested on: HepG2 cells; experiment: LC-MS/MS targeted intracellular metabolomics; assay type: cell-based, human; settings: intermediate concentration (C3; C2 for aroclor), 48 h
Procedure: Metabolite profiling of cells was performed directly in the same 96-well plate according to a standardized protocol described below. In order to prevent any interaction with the cell material, the automatic sampler was adjusted to pick up the sample from the supernatant at a specified depth avoiding the contact with the bottom of the plate.
After the initial quenching step (50 μL isopropanol 80%), additional 70 μL of isopropanol 80%, containing internal standards (methionine-D3, tryptophan-D5, arginine-13C6-15N4, Boc-Ala-Gly-Gly-Gly-OH, coenzyme Q1, coenzyme Q2, coenzyme Q4) were added to each well. The internal standards were used for quality control by visual inspection (signal intensity, peak shape, retention time); they were not used for normalization. Afterwards, plates were shaken for 5 min, 750 rpm at 20 °C, and placed for 30 s in the ultrasonic device. Then, the plates were centrifugated for 10 min, at 5485 g, 15 °C. Further, 2.5 μL of the extract were injected each for reversed-phase and hydrophilic interaction liquid chromatography followed by MS/MS detection (AB Sciex QTrap 6500+) using the positive and negative ionization mode. For reverse-phase high-performance liquid chromatography (RP-HPLC, Ascentis Express C18, 5 cm × 2.1 mm, 2.7 μm Supelco), gradient elution was performed with mobile phase A, water/methanol/0.1 M ammonium formate (1:1:0.02, w/w), and B, methyl-tert-butylether/2-propanol/methanol/0.1 M ammonium formate/formic acid (4:2:1:0.07:0.035, w/w) 5.9 min linear gradient: 0 min 100% A, 0.5 min 75% A, 5.9 min 10% A; followed by 0% A until 6.7 min; re-equilibration at 100% A until 7.7 min; flow rate 600 μL/min; column temperature 40 °C HILIC (ZIC-HILIC, 2.1 × 100 mm, 3.5 μm, Supelco) gradient elution was performed with mobile phase C, acetonitrile/water (99:1, v/v) with 0.2% (v) acetic acid, and D, 7 mM ammonium acetate with 0.2% (v) acetic acid (5.0 min linear gradient: 0 min 100% C, 5 min 10% C; followed by a linear gradient back to 100%C until 6.5 min; re-equilibration at 100% C until 7.5 min; flow rate 600 μL/min; column temperature 40 °C.). Two LC-MS systems with identical configuration were used for the analysis. Normalization to lyophilized reference samples (see below) was used to compensate for variation from between analytical batches. The efficiency of this normalization procedure was checked by principal component analysis (PCA), confirming that Pool samples from different analytical batches clustered together.
Reference samples derived from lyophilized untreated HepG2 cells (technical control samples) were measured in parallel throughout the entire analytical process. Data were normalized against the median of these lyophilized HepG2 cells reference samples, to give normalized ratios (performed for each sample per metabolite). This compensated for inter- and intra-instrumental variation. To correct for small differences in cell numbers within and between different treatment groups, data were also normalized to the within sample median, as described in detail by (Ramirez et al. [2018]). For intracellular metabolomic analysis, the median of each sample was calculated across all the 221 measured metabolites.
To generate metabolic profiles for the different treatments, heteroscedastic t test (Welch test) was applied to log-transformed normalized metabolite data to compare treated groups with their respective controls.
Principal component analysis (PCA) and hierarchical clustering (HCA) analyses were performed using R software environment (https://www.r-project.org/). PCA was conducted using the ropls package (Thévenot et al. [2015]) with log10-transformed input data and standard scaling. HCA was performed using the pvclust package (Suzuki et al. [2019]), (https://CRAN.R-project.org/package=pvclust). Input: log10(Ratio), clustering method: Ward D2, distance method: Manhattan, bootstrapping: 10000 times.

Row | Compound | PCA cluster of metabolic profile (mode of action)
1 | CCC(CC)Nc1c([N+](=O)[O-])cc(C)c(C)c1[N+](=O)[O-] [Pendimethalin] | liver enzyme inducers cluster
2 | O=C(O)c1cc(Oc2ccc(C(F)(F)F)cc2Cl)ccc1[N+](=O)[O-] [Acifluorfen] | peroxisome proliferators cluster
3 | CC(C)(Oc1ccc(CCNC(=O)c2ccc(Cl)cc2)cc1)C(=O)O [Bezafibrate] | peroxisome proliferators cluster
4 | Cc1cccc(Nc2cc(Cl)nc(SCC(=O)O)n2)c1C [Wy-14643] | peroxisome proliferators cluster
5 | CC(=O)N1CCN(c2ccc(OCC3COC(Cn4ccnc4)(c4ccc(Cl)cc4Cl)O3)cc2)CC1 (stereo not drawn) [Ketoconazole] | liver enzyme inhibitor
6 | O=c1cc(-c2ccccc2)oc2ccc3ccccc3c12 [β-naphthoflavone] | liver enzyme inducers cluster
